Data taken from PubChem BioAssay AID1053133, deposited by Broad Institute (2014).

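Plate-reader measure of the Venus reporter marking one vaccinia stage in infected cells (the cell line is not named here); read time unknown. The test concentration is not given here. Percent change in Venus reporter signal; lower (more negative) values mean stronger inhibition of that viral stage.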

Values are in %. How 0% and 100% were set is not given here. Common to all entries: measured here: Venus reporter, other viral stage. This is a side read-out of the assay, for part of the compounds, not drawn at random.

structure	activity change (Venus) (%)
OC[C@H]1[C@H](c2ccc(C#CC3CCCC3)cc2)[C@@H]2CN(CCC(F)(F)F)CCCCN12	-82.84
CC(C)NC(=O)N1[C@H](CO)[C@H](c2ccc(C#CC3CCCCC3)cc2)[C@@H]1C#N	-42.63
COc1cccc(-c2ccc3c(c2)[C@H]2[C@H](CCN2S(=O)(=O)c2cccc(OC)c2)[C@H](CO)N3)c1	-52.72
C/C=C/c1ccc([C@@H]2[C@H](CO)N3CCCCN(C(=O)Nc4ccc(F)cc4)C[C@@H]23)cc1	-54.98
COc1cccc(-c2ccc3c(c2)[C@@H]2[C@@H](CCN2C(=O)C2CCCCC2)[C@H](CO)N3)c1	-46.88
C[C@@H]1CN([C@@H](C)CO)C(=O)c2ccccc2-c2ccccc2CO[C@H]1CN(C)S(=O)(=O)c1ccc(Cl)cc1	-40.51
C[C@@H]1CN([C@H](C)CO)C(=O)Cc2cc(NC(=O)Cc3cn(C)c4ccccc34)ccc2O[C@@H]1CN(C)Cc1ccc(C(F)(F)F)cc1	-34.51
COc1ccc(C#Cc2ccc3c(c2)O[C@H](CN(C)C(=O)c2ccccn2)[C@H](C)CN([C@H](C)CO)S3(=O)=O)cc1	-32.63
C[C@@H]1CN([C@@H](C)CO)C(=O)Cc2cc(N(C)C)ccc2O[C@@H]1CN(C)Cc1ccc(-c2ccccc2)cc1	-35.47
O=S(=O)(c1ccccc1F)N1CC[C@@H]2[C@@H](CO)Nc3ccc(-c4ccccc4F)cc3[C@@H]21	-29.98
CN1C(=O)c2cc(NC(=O)c3ccc(F)c(F)c3)ccc2OC[C@H]2O[C@@H](CC(=O)N[C@H]3CCN(Cc4ccccc4)C3)CC[C@H]21	-47.06
CCCC#Cc1ccc2c(c1)O[C@H](CN(C)Cc1ccccn1)[C@H](C)CN([C@H](C)CO)S2(=O)=O	-27.75
C[C@@H]1CCCCO[C@@H](CN(C)Cc2ccccc2)[C@@H](C)CN([C@@H](C)CO)C(=O)c2cc(NC(=O)NC3CCCCC3)ccc2O1	-48.72
C[C@@H]1CN([C@H](C)CO)C(=O)c2cc(C#Cc3ccc(F)cc3)cnc2O[C@H]1CN(C)C(=O)c1ccccc1F	-47.39
O=C(Cc1ccccc1)N1CC(=O)N2[C@H](C1)[C@@H](c1ccc(-c3cccc(F)c3)cc1)[C@@H]2CO	-28.58
C[C@H](CO)N1C[C@H](C)[C@H](CN(C)C(=O)NC2CCCC2)Oc2cc(C#Cc3ccc(F)cc3)ccc2S1(=O)=O	-29.52
C[C@H]1CN([C@@H](C)CO)C(=O)Cc2cc(NC(=O)Nc3ccccc3)ccc2O[C@H]1CN(C)S(=O)(=O)c1ccc(F)cc1	-36.09
Cc1noc(C)c1S(=O)(=O)Nc1cccc2c1O[C@H](CN(C)Cc1ccc(-c3ccccc3)cc1)[C@H](C)CN([C@@H](C)CO)C2=O	-33.01
C[C@@H]1CN([C@@H](C)CO)C(=O)c2cc(-c3ccccc3F)cnc2O[C@H]1CN(C)Cc1cccc(F)c1	-31.08
COc1ccc(CN(C)C[C@H]2OCCCC[C@H](C)Oc3ccc(NS(=O)(=O)c4ccc(Cl)cc4)cc3C(=O)N([C@H](C)CO)C[C@H]2C)cc1	-79.09
O=C(Nc1ccc(F)cc1)N1CCCCN2[C@@H](CO)[C@H](c3ccc(C#CC4CC4)cc3)[C@@H]2C1	-64.39
O=C(C[C@H]1CC[C@H]2[C@@H](COC[C@H](O)CN2S(=O)(=O)c2cccc(Cl)c2)O1)Nc1ccc(-c2ccccc2)cc1	-42.11
Cc1noc(C)c1S(=O)(=O)N(C)C[C@@H]1OCCCC[C@H](C)Oc2ccc(NS(=O)(=O)c3cccs3)cc2C(=O)N([C@H](C)CO)C[C@@H]1C	-43.33
Cc1cccc(-c2ccc([C@H]3[C@H]4CN(C(=O)c5ccccc5)CC(=O)N4[C@H]3CO)cc2)c1	-27.79
C[C@@H]1CCCCO[C@H](CN(C)C)[C@H](C)CN([C@@H](C)CO)C(=O)c2cc(NC(=O)Nc3ccc(C(F)(F)F)cc3)ccc2O1	-19.85
C[C@H]1CN([C@@H](C)CO)S(=O)(=O)c2ccc(C#Cc3ccc(F)cc3)cc2O[C@@H]1CN(C)C	-76.04
CC(C)C#Cc1ccc([C@@H]2[C@H]3CN(C(=O)c4ccc(F)cc4)CCCCN3[C@H]2CO)cc1	-57.52
C[C@@H]1CN([C@H](C)CO)C(=O)c2cc(NC(=O)NC3CCCCC3)ccc2O[C@@H](C)CCCCO[C@H]1CN(C)C(=O)NC1CCCCC1	-44.5
COc1ccc(S(=O)(=O)Nc2ccc3c(c2)C(=O)N([C@H](C)CO)C[C@H](C)[C@H](CN(C)C(=O)Nc2ccc(F)cc2)OCCCC[C@H](C)O3)cc1	-28.41
C[C@@H]1CN([C@@H](C)CO)C(=O)c2cccc(NC(=O)Nc3ccc(F)cc3)c2O[C@@H]1CN(C)S(=O)(=O)c1ccccc1	-29.64
C[C@@H]1CN([C@H](C)CO)C(=O)c2cc(/C=C/c3ccccc3)cnc2O[C@@H]1CN(C)S(=O)(=O)c1cccs1	-38.38
CCCNC(=O)c1cc2c(c(-c3cccc(-c4ccc(F)cc4)c3)n1)[C@H](CCO)N([S@@](=O)C(C)(C)C)C2	-10.55
COc1ccc([Si](C)(C)[C@H]2[C@H](CCO)O[C@@]3(C(=O)N(Cc4ccc(N5CCOC5=O)cc4)c4ccccc43)[C@@H]2C)cc1	-58.79
C[C@@H]1CN([C@H](C)CO)S(=O)(=O)c2ccc(-c3ccc(C#N)cc3)cc2O[C@H]1CN(C)Cc1cccc(F)c1	-39.75
CC(C)NC(=O)N1CCCCN2[C@H](C1)[C@@H](c1ccc(C#Cc3ccccc3F)cc1)[C@@H]2CO	-67.23
C[C@@H]1CN([C@@H](C)CO)C(=O)Cc2cc(NC(=O)Nc3ccc(C(F)(F)F)cc3)ccc2O[C@@H]1CN(C)C(=O)Nc1ccc(C(F)(F)F)cc1	-30.46
C[C@@H]1CN([C@H](C)CO)C(=O)c2cc(NC(=O)Cc3ccccc3)ccc2O[C@@H](C)CCCCO[C@H]1CN(C)C(=O)NC1CCCCC1	-27.76
COc1cccc(NC(=O)N(C)C[C@@H]2Oc3ncc(/C=C/c4ccccc4)cc3C(=O)N([C@@H](C)CO)C[C@H]2C)c1	-24.51
CC(C)CC#Cc1ccc2c(c1)O[C@@H](CN(C)Cc1cccnc1)[C@@H](C)CN([C@@H](C)CO)S2(=O)=O	-62.57

5 of the entries, repeated:

structure	activity change (Venus) (%)
C[C@@H]1CN([C@H](C)CO)C(=O)c2cc(C#Cc3ccc(F)cc3)cnc2O[C@H]1CN(C)C(=O)c1ccccc1F	-47.39
CC(C)NC(=O)N1[C@H](CO)[C@H](c2ccc(C#CC3CCCCC3)cc2)[C@@H]1C#N	-42.63
CCCNC(=O)c1cc2c(c(-c3cccc(-c4ccc(F)cc4)c3)n1)[C@H](CCO)N([S@@](=O)C(C)(C)C)C2	-10.55
C[C@H]1CN([C@@H](C)CO)C(=O)Cc2cc(NC(=O)Nc3ccccc3)ccc2O[C@H]1CN(C)S(=O)(=O)c1ccc(F)cc1	-36.09
C[C@@H]1CN([C@H](C)CO)C(=O)c2cc(NC(=O)Cc3ccccc3)ccc2O[C@@H](C)CCCCO[C@H]1CN(C)C(=O)NC1CCCCC1	-27.76